In patent US6972178:
These are yes or no findings as the source states them, for the method shown. For part of these data: In cells and extracts the contact can be indirect. Some entries that bind do so weakly or less than the wild type.

Amino acid sequences for entries named in this document (tags omitted). A change or cut given only in a name is not applied to a line headed by its entry.
UniProt Q04752: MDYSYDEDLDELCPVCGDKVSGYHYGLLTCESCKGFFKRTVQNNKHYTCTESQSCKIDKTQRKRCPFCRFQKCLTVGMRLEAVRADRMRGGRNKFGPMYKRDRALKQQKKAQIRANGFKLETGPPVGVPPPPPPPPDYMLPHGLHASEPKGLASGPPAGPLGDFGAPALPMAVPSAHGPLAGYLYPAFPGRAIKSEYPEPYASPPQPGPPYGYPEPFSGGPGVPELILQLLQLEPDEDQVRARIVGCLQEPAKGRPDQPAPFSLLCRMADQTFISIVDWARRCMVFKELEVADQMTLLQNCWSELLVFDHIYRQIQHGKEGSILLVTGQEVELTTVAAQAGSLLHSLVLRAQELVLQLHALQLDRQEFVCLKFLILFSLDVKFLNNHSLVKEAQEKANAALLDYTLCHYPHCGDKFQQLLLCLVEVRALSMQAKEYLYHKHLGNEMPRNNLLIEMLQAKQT
UniProt P04386: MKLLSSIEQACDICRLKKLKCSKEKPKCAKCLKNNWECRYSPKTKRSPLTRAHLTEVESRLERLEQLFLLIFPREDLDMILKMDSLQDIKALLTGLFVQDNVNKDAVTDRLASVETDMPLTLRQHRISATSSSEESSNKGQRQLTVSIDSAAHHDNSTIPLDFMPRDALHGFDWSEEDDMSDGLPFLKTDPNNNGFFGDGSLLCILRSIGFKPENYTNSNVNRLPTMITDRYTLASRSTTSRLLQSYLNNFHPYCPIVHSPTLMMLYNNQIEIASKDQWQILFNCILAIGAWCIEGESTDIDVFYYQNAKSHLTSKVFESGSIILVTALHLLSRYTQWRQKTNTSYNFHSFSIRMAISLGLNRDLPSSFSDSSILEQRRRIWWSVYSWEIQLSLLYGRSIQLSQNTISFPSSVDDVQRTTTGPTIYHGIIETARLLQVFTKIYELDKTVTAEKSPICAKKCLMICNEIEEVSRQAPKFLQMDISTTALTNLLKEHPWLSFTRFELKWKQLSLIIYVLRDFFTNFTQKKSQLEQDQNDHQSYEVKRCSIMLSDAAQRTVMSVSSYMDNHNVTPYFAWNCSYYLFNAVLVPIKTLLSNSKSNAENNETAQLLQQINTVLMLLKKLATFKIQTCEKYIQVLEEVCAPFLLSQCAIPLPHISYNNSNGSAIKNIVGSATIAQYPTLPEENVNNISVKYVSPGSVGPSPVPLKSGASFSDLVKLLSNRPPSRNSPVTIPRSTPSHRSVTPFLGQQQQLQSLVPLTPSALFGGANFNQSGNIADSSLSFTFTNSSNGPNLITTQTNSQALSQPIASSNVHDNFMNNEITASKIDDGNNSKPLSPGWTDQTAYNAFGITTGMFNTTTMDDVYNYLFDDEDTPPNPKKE
UniProt Q12796: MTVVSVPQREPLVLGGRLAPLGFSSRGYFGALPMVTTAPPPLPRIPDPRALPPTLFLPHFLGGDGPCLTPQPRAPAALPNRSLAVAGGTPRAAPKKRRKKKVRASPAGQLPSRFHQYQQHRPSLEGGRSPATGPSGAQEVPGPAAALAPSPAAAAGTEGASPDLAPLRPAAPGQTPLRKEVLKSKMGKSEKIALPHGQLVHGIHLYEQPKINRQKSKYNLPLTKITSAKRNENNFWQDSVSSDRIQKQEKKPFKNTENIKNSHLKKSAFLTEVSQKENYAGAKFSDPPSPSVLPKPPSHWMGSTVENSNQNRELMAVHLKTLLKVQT

Assays:
[1] = target: Wild type bovine SF1 (steroidogenic factor 1), from pSG5 vector (bovine) (UniProt Q04752); assay: GST pull-down of in vitro translated 35S-SF1, SDS-PAGE and autoradiography
[2] = target: Gal4DBD-SF1 fusion protein (bovine steroidogenic factor 1, pGBT9-SF1) (bovine) (UniProt P04386+Q04752); assay: yeast two-hybrid, β-galactosidase activity (FIG. 5B)
[3] = target: Gal4DBD-ERRα1 fusion protein (estrogen related receptor α-1, pGBT9-ERRα-1) (UniProt P04386); assay: yeast two-hybrid (HIS3 and LacZ reporters), no ligand

Substance: GST-PNRC270-327 (from UniProt Q12796 270-327)
- binding [1]: binds

Substance: Gal4AD fusion of PNRC aa 270-317 (from UniProt Q12796 270-317)
- binding [2]: binds

Substance: Gal4AD-PNRC fusion protein (full-length proline-rich nuclear receptor co-regulatory protein) (from UniProt Q12796 1-327)
- binding [3]: binds
